Values quoted from earlier work, collected in patent publication US20190224153A1, “L-DOPA DERIVATIVES FOR THE TREATMENT OF NEUROLOGICAL DISEASES” (BERLIREM GMBH, priority 2016, published 2019).

Settings: oral L-DOPA therapy; cited from earlier work

For `N[C@@H](Cc1ccc(O)c(O)c1)C(=O)O` [L-DOPA, L-Dihydroxy-Phenylalanine], the terminal half-life is given as “about 30 mins”.
